Measured values as given in ChEMBL document CHEMBL1156784, “The permeation of amphoteric drugs through artificial membranes--an in combo absorption model based on paracellular and transmembrane permeability” (J Med Chem, 2010).

Assay: Permeability at pH 6.5 by PAMPA method

CCn1cc(C(=O)O)c(=O)c2cc(F)c(N3CCN(C)CC3)cc21 [PEFLOXACIN]
Papp: 23 ×10⁻⁶ cm/s
